Among all 580,000 compounds or so, about 6,100 (1.1%) were called active. Inconclusive results, whose numbers are uncertain, are shown with a selection of clear calls. The call rests on the fitted dose curve; in most records, active means well fitted inhibition curve with a large enough effect; inconclusive means small, poorly fitted or top-dose-only effect, or another doubt; inactive means no such curve, though single readings can be large or run the other way. Potencies of inconclusive entries are doubtful fits and often do not repeat.
What follows are molecules tested against Polyunsaturated fatty acid lipoxygenase ALOX12 (Homo sapiens) (UniProt P18054) (assay: Primary qHTS assay for inhibitors of human arachidonate 12S-lipoxygenase (ALOX12): Round 2). Conditions: purified 12hLO, xylenol orange hydroperoxide absorbance; activity change, negative = inhibition: at 108 µM (top of the series) unless noted.
Procedure, shortened: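 Purified human 12hLO (150 nM final) in 25 mM Hepes, 0.01% Triton X-100, pH 7.0 was preincubated 15 min at room temperature with compound. Then 40 uM arachidonic acid was added, 30 min. Hydroperoxide was read by Fe-XO absorbance ratio 573/405 nm.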
On the % scale 0 is the no-effect control and ±100 the full control effect; potency means the concentration at half of the fitted maximal effect.

Amino acid sequences for entries named in this document (tags omitted). A change or cut given only in a name is not applied to a line headed by its entry.
UniProt P18054: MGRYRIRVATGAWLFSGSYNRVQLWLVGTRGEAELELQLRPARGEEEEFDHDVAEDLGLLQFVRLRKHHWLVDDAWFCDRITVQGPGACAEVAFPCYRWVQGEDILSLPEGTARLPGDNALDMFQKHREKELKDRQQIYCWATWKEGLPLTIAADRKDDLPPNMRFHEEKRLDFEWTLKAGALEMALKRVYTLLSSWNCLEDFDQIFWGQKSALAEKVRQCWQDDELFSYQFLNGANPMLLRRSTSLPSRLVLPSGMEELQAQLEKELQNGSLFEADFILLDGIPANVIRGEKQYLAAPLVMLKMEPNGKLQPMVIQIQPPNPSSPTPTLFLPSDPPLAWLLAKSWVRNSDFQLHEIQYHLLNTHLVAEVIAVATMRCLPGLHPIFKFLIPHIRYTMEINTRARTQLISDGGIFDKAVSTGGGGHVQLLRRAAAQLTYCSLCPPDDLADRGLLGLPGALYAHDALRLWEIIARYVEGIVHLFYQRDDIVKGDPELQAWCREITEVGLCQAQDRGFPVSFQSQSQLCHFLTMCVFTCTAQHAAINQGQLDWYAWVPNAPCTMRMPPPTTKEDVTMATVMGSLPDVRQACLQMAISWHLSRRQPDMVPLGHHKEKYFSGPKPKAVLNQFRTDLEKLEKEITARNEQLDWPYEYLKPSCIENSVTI

| SMILES | Potency | activity change, negative = inhibition |
| --- | --- | --- |
| O=C1NC2CCCCC2C(=O)N1OS(=O)(=O)c1ccccc1 (stereo not given) | inconclusive: 50.1 µM [inhibitor, partial curve, poor fit] | – |
| COc1cc(OC)c(NC(=O)NCc2ccc3c(c2)CCN3C(C)=O)cc1Cl | inconclusive: 126 µM [inhibitor, single point] | – |
| Cc1ccc(CN(C)C(=O)COc2ccc3ccc(=O)oc3c2)cc1 | inconclusive: 79.4 µM [inhibitor, partial curve, poor fit] | – |
| COc1ccc2c([N+](=O)[O-])c(Cl)[nH]c2c1 | inconclusive: 12.6 µM [inhibitor, partial curve, poor fit] | – |
| COc1ccc(Nc2ccc3c(n2)CN(Cc2nc4ccccc4s2)C(=O)CO3)cn1 | inconclusive: 28.2 µM [inhibitor, partial curve, poor fit] | – |
| Cc1ccccc1-n1cc(-c2ccnc(NC3CCN(C)CC3)n2)cn1 | – | inactive: 18.8% |
| Cn1c(=O)[nH]c(=O)c2c1nc(N1CCN(c3cccc(Cl)c3)CC1)n2Cc1ccccc1 | inconclusive: 0.447 µM [inhibitor, full curve, poor fit] | – |
| COc1ccc(N(CC(=O)Nc2ccc(S(=O)(=O)N3CCOCC3)cc2)S(=O)(=O)c2ccc(F)cc2)cc1 | inconclusive: 50.1 µM [inhibitor, partial curve, poor fit] | – |
| CC(C)c1ccc(/C=N/NC(=O)C(c2ccccc2)c2ccccc2)cc1 | – | inactive: 10.5% |
| CC1CCc2c(sc(NC(=O)c3ccco3)c2C(=O)O)C1 (stereo not given) | – | inactive: -15.8% |
| Cc1ccc(CN2CC(N3CCC(c4ccccc4)CC3)CS2(=O)=O)cc1 (stereo not given) | inconclusive: 44.7 µM [inhibitor, partial curve, poor fit] | – |
| CCN(CC(=O)Nc1ccc(NC(C)=O)cc1)C(=O)COc1ccccc1-c1ccccc1 | – | inactive: -12.4% |
| N#Cc1nc(-c2ccco2)oc1N1CCN(CC(=O)N(c2ccccc2)C2CCS(=O)(=O)C2)CC1 (stereo not given) | inconclusive: 44.7 µM [inhibitor, partial curve, poor fit] | – |
| COc1cc(Nc2nc3ccccc3nc2NS(=O)(=O)c2cccs2)cc(OC)c1 | inconclusive: 39.8 µM [inhibitor, partial curve, poor fit] | – |
| CC(=O)N1CCN(c2cc(-c3ccccc3)nc3c(C)noc23)CC1 | inconclusive: 126 µM [inhibitor, partial curve, poor fit] | – |
| CCOCCCNC(=O)C1CCCCC1 | – | inactive: 6.7% |
| Cc1ccc(C)c(CS(=O)(=O)Cc2nc(CC(C)C)no2)c1 | inconclusive: 100 µM [inhibitor, single point] | – |
| CC1CCCCN1CCNC(=O)c1cc2c(s1)-c1ccccc1OC2 (stereo not given) | inconclusive: 11.2 µM [inhibitor, full curve, poor fit] | – |
| CC(C)c1nc2cc(NC(=O)NCc3ccccc3F)ccc2o1 | inconclusive: 141 µM [inhibitor, single point] | – |
| CCCCC(CC)CN1CN(CC(CC)CCCC)CC(C)(N)C1 (stereo not given) | inactive | – |
| O=C(/C=C/c1ccccc1)c1ccccc1-n1cccn1 | inconclusive: 39.8 µM [inhibitor, single point] | – |
| CCc1ccc2occ(CC(=O)Nc3c(C(=O)Nc4ccc(Cl)cc4)oc4ccccc34)c2c1 | – | inactive: -7.13% |

| SMILES | Potency | activity change, negative = inhibition |
| --- | --- | --- |
| COc1ccc(CNC(=S)Nc2cccc(C)c2C)cc1 | inconclusive: 44.7 µM [inhibitor, partial curve, poor fit] | – |
| CCC1CCc2c(sc(NC(=O)/C=C/c3ccc(C(C)C)cc3)c2C#N)C1 (stereo not given) | – | inactive: 1.2% |
| Cc1ccccc1Nc1nc(-c2ccc([N+](=O)[O-])cc2)nc2ccccc12 | inconclusive: 5.62 µM [inhibitor, full curve, poor fit] | – |
| CC(C)c1cccc(C(C)C)c1NC(=O)c1ccccc1Sc1ccccc1C#N | inconclusive: 56.2 µM [inhibitor, partial curve, poor fit] | – |
| N#CCCn1c(SCC(=O)Nc2ccc(N3CCCCC3)cc2)nc2ccccc21 | – | inactive: 6.63% |
| COc1cccc(S(=O)(=O)N(C)C[C@H]2OCc3cnnn3CCCC(=O)N([C@H](C)CO)C[C@@H]2C)c1 | inconclusive: 126 µM [inhibitor, partial curve, poor fit] | – |
| COc1cc(OC)cc(-c2sc3ccc(OC)cc3c2C#CCO)c1 | inconclusive: 25.1 µM [inhibitor, partial curve, poor fit] | – |
| CCN1C(=NCCc2ccc(Br)cc2)N[C@@H](c2ccccc2)[C@H](C(=O)OC)[C@H]1C | active: 44.7 µM | – |
| COc1ccc(C(C)=O)cc1CSC(=S)N1CCSCC1 | inconclusive: 50.1 µM [inhibitor, partial curve, poor fit] | – |
| O=C1NCCCCCCN(C(=O)c2ccncc2)[C@H]2C[C@H](c3nc(Cc4ccccc4)no3)C[C@@H]12 | – | inactive: 6.55% |
| O=C(N[C@H]1CCN2C(=O)c3cc(-c4ccc5c(c4)OCO5)ccc3NC(=O)[C@H]12)c1cccc(F)c1 | inconclusive: 44.7 µM [inhibitor, partial curve] | – |
| COc1ccc(CNC(=O)c2cc3c(N4CCCC4)nc(C)cn3n2)c(OC)c1 | inconclusive: 3.16 µM [inhibitor, partial curve, poor fit] | – |
| CC(C)(C)NC(=O)C1CCN(S(=O)(=O)Cc2ccccc2)CC1 | inconclusive: 112 µM [inhibitor, single point] | – |
| CCCCCC1CCCC(=O)O1 (stereo not given) | – | inactive: -4.36% [at 176 µM] |
| COc1ccc(C2(C(=O)N3CCC(Cc4nc(-c5ccccc5)no4)CC3)CC2)cc1 | – | inactive: 1.98% |
| CCOC(=O)c1cc(C(=O)OCC)c2ccccn2c1=O | inconclusive: 28.2 µM [inhibitor, partial curve, poor fit] | – |
| COc1ccccc1-c1cc(C(=O)NC(C)C)nn2cccc12 | inconclusive: 39.8 µM [inhibitor, partial curve, poor fit] | – |
| O=C(N/N=C/C(Br)=C/c1ccccc1)c1cc(-c2ccco2)[nH]n1 | inconclusive: 50.1 µM [inhibitor, partial curve, poor fit] | – |
| Cc1ccc(S(=O)(=O)N(C)c2ccc(C(=O)NCC(c3ccco3)N(C)C)cc2)cc1 (stereo not given) | – | inactive: 345% |
| O=c1c(C(c2ccc(Br)cc2)c2c(O)nc3n(c2=O)CCS3)c(O)nc2n1CCS2 | inconclusive: 39.8 µM [inhibitor, partial curve, poor fit] | – |
| CCOC(=O)c1[nH]c2c(c1Cc1ccccc1)C(=O)CC(c1ccc(OC)cc1)C2 (stereo not given) | – | inactive: -10.9% |
| CC(=O)CCS(=O)(=O)c1ccc(Oc2ccc(S(=O)(=O)CCC(C)=O)cc2)cc1 | – | inactive: -3.04% |

Five consecutive compounds from above, for reference:

| SMILES | Potency | activity change, negative = inhibition |
| --- | --- | --- |
| O=C(N[C@H]1CCN2C(=O)c3cc(-c4ccc5c(c4)OCO5)ccc3NC(=O)[C@H]12)c1cccc(F)c1 | inconclusive: 44.7 µM [inhibitor, partial curve] | – |
| COc1ccc(CNC(=O)c2cc3c(N4CCCC4)nc(C)cn3n2)c(OC)c1 | inconclusive: 3.16 µM [inhibitor, partial curve, poor fit] | – |
| CC(C)(C)NC(=O)C1CCN(S(=O)(=O)Cc2ccccc2)CC1 | inconclusive: 112 µM [inhibitor, single point] | – |
| CCCCCC1CCCC(=O)O1 (stereo not given) | – | inactive: -4.36% [at 176 µM] |
| COc1ccc(C2(C(=O)N3CCC(Cc4nc(-c5ccccc5)no4)CC3)CC2)cc1 | – | inactive: 1.98% |

Next part.

| SMILES | Potency | activity change, negative = inhibition |
| --- | --- | --- |
| O=C(O)c1ccc(NC(=S)NCc2ccccc2)cc1 | inconclusive: 50.1 µM [inhibitor, partial curve, poor fit] | – |
| CCOC(=O)CCc1c(C)c2c(C)nn(-c3ccccc3)c2[nH]c1=O | inconclusive: 89.1 µM [inhibitor, single point] | – |
| N#Cc1ccc(/C=N/Nc2ccccc2C(F)(F)F)cc1 | active: 10 µM | – |
| Cc1ccc(NC(=O)CCc2nc3ccccc3s2)c(O)c1 | inconclusive: 17.8 µM [inhibitor, single point] | – |
| CC(C)(C)[C@H]1C=C(C(=O)N2CCOCC2)O[C@@H](OCCCCO)C1 | inconclusive: 63.1 µM [inhibitor, partial curve, poor fit] | – |
| O=C(CN(C(=O)CNC(=O)c1cccs1)c1ccccc1)NC1CCCCC1 | inconclusive: 126 µM [inhibitor, partial curve, poor fit] | – |
| CCCCNc1nnc(SCc2ncc(-c3ccccc3)o2)s1 | – | inactive: 6.99% |
| CN(C)c1ccc(NC(=O)Cn2c(SCc3ccc(F)cc3)nc3cccnc32)cc1 | – | inactive: -23.4% |
| Cc1nc(/N=C(\N)NC(=O)N2c3ccccc3Sc3ccccc32)nc2ccccc12 | inconclusive: 56.2 µM [inhibitor, partial curve, poor fit] | – |
| CCc1ccc(NC(=O)CSC2=Nc3ccccc3C3=NC(CC(=O)NCc4ccc5c(c4)OCO5)C(=O)N23)cc1 (stereo not given) | – | inactive: -29.1% |
| COCCOCCOCCOCCOC | – | inactive: 12.4% [at 176 µM] |
| CCCc1cc(C(=O)NNC(=S)Nc2cccc(C)c2)cs1 | inconclusive: 31.6 µM [inhibitor, partial curve] | – |
| COc1ccc(C/C(C)=N/NC(=S)Nc2ccc(C(C)C)cc2)cc1 | inconclusive: 50.1 µM [inhibitor, partial curve, poor fit] | – |
| Cc1cc(C)c(NC(=O)COC(=O)c2cc([N+](=O)[O-])ccc2N2CCOCC2)c(C)c1 | inconclusive: 141 µM [inhibitor, partial curve, poor fit] | – |
| OCCN1CCN(CC#CCn2c3ccccc3c3ccccc32)CC1 | inconclusive: 50.1 µM [inhibitor, single point] | – |
| COc1ccccc1-c1cnc2c(c1)C(=O)N([C@@H](C)CO)C[C@H](C)[C@H](CN(C)C)O2 | inconclusive: 126 µM [inhibitor, single point] | – |
| O=C(CC(c1cccc([N+](=O)[O-])c1)c1cn(Cc2ccc(F)cc2)c2ccccc12)N1CCCC1 (stereo not given) | inconclusive: 39.8 µM [inhibitor, full curve] | – |
| Cc1ccc(S(=O)(=O)N2CCN(c3ccc4nnc(-c5ccccc5)n4n3)CC2)cc1 | inconclusive: 44.7 µM [inhibitor, partial curve, poor fit] | – |
| O=C(NCC1CCCO1)c1ccc(-c2ccccc2Cl)o1 (stereo not given) | inconclusive: 35.5 µM [inhibitor, full curve, poor fit] | – |
| Cc1ccc(S(=O)(=O)NC(C(=O)Oc2ccc3ccc(=O)oc3c2)c2ccccc2)cc1 (stereo not given) | – | inactive: -20.5% |
| Cc1ccc(/C=C2/C(=O)N(c3ccccc3)C(=S)N2C)o1 | inconclusive: 44.7 µM [inhibitor, partial curve] | – |
